# Literature values, collected in patent US20170372030A9, “METHOD AND APPARATUS FOR COMPUTER MODELING OF THE INTERACTION BETWEEN AND AMONG CORTICAL AND SUBCORTICAL AREAS IN THE HUMAN BRAIN FOR THE PURPOSE OF PREDICTING THE EFFECT OF DRUGS IN PSYCHIATRIC AND COGNITIVE DISEASES” (priority 2005, published 2017).
# At least one compound was matched to its structure with a doubt left.
# Tested on: DA clearance
# Settings: wild-type mice; cited from earlier work
structure (smiles),measurement,value
COC(=O)[C@H]1[C@@H](OC(=O)c2ccccc2)C[C@@H]2CC[C@H]1N2C [Cocaine],DA clearance rate,about 0.35 sec^−1
